Data as given in PubChem BioAssay AID652259 (Drosophila RNAi Screening Center, 2013).

Screen: 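Identify new Wingless signalling regulators in fly cells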 (primary screen)
System: Drosophila clone 8 imaginal disc epithelial cells
Reagent: long dsRNA against Drosophila genes
Conditions: pathway stimulated by co-transfected Wingless expression plasmid
Detection: 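Firefly luciferase from a tcf-site Wingless reporter, measured alongside co-transfected Renilla luciferase that tracks transfection; pathway stimulated by a Wingless plasmid; the firefly-to-Renilla ratio is not deposited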
Scale: firefly reporter light: higher = more Wg reporter light, before normalisation; Renilla control light: higher = more transfected or surviving cells
Hit rule: 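Strong candidates differ from their plate mean by at least two out of four per-plate statistical tests; weak candidates meet just one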
Meaning of the calls: active = candidate regulator (raises or lowers reporter); inactive = not a candidate
The screen tested about 22,000 reagents; below is a random part of those with a known target gene and a result. Over the whole deposit, 233 (1.1%) were called active. 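Light values are raw, unnormalised plate reads; the ratio scores behind the reporter calls were not deposited.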 The numbers tell different reagents against one gene apart. Not stated in the record: the amount of reagent, the time to read-out, the dose of the treatment.

What is on record for CG5902?
firefly reporter light, replicate 1: 4032; firefly reporter light, replicate 2: 4586; Renilla control light, replicate 1: 601; Renilla control light, replicate 2: 1717; Outcome: inactive

For AIMP1, what does the deposit list?
firefly reporter light, replicate 1: 3418; firefly reporter light, replicate 2: 9088; Renilla control light, replicate 1: 1488; Renilla control light, replicate 2: 3549; Outcome: inactive

For Frl #1, what was measured?
firefly reporter light, replicate 1: 3220; Renilla control light, replicate 1: 1392; Outcome: inactive

What did the screen give for Frl #2?
firefly reporter light, replicate 1: 4563; Renilla control light, replicate 1: 2006; Outcome: inactive

How did the screen score Frl #3?
firefly reporter light, replicate 1: 5660; Renilla control light, replicate 1: 2651; Outcome: inactive

With Fer2LCH, what does the deposit list?
firefly reporter light, replicate 1: 6534; Renilla control light, replicate 1: 1936; Outcome: inactive

What is on record for Sil1?
firefly reporter light, replicate 1: 2704; firefly reporter light, replicate 2: 4864; Renilla control light, replicate 1: 1427; Renilla control light, replicate 2: 1690; Outcome: inactive

With Spn77Ba, how do the results read?
firefly reporter light, replicate 1: 3123; Renilla control light, replicate 1: 971; Outcome: inactive

With ytr #1, what does the deposit list?
firefly reporter light, replicate 1: 20546; Renilla control light, replicate 1: 6538; Outcome: inactive

What is on record for ytr #2?
firefly reporter light, replicate 1: 5.75e5; firefly reporter light, replicate 2: 5.98e5; Renilla control light, replicate 1: 2.04e5; Renilla control light, replicate 2: 2.32e5; Outcome: inactive

With CG14650, what was measured?
firefly reporter light, replicate 1: 12002; firefly reporter light, replicate 2: 9.29e5; Renilla control light, replicate 1: 5464; Renilla control light, replicate 2: 5.07e5; Outcome: inactive

What is on record for Ccz1?
firefly reporter light, replicate 1: 5266; Renilla control light, replicate 1: 2144; Outcome: inactive
